Measured values taken from the supplement of paper PMC10849652.
This is one part of the list.

The chains behind the UniProt entries cited, without tags or fusion partners. Where a name states a change or a piece, a line headed by the entry shows the natural chain unless it says otherwise.
UniProt Q9NRX5: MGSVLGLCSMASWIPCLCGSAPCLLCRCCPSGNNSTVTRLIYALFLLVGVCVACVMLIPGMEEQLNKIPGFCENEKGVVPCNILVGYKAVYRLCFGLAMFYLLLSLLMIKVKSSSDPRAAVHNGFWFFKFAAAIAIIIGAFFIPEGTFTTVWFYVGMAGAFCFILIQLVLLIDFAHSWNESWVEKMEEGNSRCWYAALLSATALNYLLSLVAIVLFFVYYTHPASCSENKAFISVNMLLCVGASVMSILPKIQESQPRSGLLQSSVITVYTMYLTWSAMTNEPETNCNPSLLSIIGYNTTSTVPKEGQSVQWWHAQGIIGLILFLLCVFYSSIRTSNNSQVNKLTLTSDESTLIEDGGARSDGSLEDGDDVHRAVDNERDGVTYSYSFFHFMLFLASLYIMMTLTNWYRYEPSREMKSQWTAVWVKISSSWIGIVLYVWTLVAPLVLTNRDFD
UniProt Q0GE19: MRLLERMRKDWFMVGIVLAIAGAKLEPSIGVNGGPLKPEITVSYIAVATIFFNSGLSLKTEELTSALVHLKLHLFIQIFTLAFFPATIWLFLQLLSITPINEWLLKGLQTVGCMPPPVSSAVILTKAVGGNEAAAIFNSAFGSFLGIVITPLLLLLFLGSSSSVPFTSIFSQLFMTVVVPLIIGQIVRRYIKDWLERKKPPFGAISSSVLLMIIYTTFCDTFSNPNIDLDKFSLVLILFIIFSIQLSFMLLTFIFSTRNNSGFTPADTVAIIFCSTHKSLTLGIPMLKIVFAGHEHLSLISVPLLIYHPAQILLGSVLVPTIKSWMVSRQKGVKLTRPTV
UniProt Q9Y3L3: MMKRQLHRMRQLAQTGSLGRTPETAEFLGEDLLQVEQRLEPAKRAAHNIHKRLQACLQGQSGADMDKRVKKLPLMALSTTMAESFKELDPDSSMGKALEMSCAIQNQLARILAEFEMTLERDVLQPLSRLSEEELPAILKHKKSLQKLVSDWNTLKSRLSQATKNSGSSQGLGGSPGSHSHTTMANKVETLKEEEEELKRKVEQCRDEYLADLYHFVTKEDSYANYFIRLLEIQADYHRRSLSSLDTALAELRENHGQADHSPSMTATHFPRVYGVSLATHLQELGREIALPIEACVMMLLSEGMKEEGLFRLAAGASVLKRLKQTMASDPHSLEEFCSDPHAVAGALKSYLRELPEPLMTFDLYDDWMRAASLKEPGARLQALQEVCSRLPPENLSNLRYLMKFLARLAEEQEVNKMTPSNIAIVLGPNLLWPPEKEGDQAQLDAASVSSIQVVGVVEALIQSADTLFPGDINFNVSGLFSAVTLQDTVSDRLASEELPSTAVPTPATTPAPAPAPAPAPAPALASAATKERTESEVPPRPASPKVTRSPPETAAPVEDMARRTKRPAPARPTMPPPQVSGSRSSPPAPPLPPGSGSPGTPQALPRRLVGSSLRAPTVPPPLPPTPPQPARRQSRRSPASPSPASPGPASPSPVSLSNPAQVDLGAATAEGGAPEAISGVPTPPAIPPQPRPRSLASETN
UniProt Q9BRV8: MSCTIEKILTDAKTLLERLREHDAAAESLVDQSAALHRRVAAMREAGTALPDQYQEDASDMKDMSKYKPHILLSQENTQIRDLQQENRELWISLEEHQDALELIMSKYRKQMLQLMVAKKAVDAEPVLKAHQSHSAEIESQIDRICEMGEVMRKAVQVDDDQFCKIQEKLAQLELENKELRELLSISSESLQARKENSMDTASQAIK
UniProt Q7L8J4: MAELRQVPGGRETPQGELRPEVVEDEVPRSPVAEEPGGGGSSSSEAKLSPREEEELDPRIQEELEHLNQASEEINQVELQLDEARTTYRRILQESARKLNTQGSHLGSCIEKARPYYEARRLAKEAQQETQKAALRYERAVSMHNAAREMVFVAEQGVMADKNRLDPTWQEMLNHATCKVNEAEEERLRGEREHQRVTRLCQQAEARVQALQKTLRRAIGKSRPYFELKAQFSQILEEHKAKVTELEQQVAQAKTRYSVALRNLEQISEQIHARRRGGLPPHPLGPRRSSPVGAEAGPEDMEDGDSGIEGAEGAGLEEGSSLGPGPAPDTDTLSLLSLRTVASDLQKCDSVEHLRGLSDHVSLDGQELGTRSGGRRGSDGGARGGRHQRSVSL
UniProt P84101: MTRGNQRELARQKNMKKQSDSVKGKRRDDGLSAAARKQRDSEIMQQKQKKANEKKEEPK
UniProt P55011: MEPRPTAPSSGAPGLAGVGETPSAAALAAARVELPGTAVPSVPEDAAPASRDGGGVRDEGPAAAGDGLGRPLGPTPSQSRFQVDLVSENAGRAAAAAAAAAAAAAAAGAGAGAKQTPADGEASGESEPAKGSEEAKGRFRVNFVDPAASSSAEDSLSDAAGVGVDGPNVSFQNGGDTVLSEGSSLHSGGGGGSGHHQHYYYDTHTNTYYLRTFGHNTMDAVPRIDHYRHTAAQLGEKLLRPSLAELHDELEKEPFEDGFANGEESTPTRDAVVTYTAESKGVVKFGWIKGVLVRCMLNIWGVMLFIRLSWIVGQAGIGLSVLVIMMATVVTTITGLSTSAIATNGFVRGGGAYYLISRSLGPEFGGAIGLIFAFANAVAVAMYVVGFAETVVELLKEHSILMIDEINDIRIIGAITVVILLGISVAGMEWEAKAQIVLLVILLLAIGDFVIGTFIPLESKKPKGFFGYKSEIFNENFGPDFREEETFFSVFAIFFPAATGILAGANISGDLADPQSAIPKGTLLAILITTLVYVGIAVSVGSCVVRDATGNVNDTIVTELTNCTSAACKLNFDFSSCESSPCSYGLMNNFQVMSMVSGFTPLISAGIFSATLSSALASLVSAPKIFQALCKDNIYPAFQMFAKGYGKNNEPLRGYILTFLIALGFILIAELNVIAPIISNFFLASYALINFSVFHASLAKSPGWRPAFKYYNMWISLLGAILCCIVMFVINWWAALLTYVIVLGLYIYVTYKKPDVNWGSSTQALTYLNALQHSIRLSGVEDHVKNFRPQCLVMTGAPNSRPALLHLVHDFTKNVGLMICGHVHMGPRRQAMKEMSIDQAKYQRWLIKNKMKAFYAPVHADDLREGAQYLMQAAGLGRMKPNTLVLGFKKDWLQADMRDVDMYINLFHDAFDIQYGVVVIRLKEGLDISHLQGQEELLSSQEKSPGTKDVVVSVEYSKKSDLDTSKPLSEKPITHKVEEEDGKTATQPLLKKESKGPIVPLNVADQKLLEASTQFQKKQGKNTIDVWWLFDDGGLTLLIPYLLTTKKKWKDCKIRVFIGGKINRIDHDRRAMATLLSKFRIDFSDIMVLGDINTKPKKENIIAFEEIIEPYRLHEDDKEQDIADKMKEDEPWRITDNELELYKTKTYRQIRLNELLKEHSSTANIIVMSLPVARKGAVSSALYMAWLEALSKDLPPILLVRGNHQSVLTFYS
UniProt Q99720, whole entry, looked up: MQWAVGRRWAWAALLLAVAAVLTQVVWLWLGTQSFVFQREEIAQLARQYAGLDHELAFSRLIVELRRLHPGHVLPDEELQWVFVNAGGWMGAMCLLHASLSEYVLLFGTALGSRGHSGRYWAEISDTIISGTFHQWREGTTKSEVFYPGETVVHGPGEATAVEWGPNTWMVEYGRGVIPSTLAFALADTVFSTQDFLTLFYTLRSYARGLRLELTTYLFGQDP
UniProt P34897: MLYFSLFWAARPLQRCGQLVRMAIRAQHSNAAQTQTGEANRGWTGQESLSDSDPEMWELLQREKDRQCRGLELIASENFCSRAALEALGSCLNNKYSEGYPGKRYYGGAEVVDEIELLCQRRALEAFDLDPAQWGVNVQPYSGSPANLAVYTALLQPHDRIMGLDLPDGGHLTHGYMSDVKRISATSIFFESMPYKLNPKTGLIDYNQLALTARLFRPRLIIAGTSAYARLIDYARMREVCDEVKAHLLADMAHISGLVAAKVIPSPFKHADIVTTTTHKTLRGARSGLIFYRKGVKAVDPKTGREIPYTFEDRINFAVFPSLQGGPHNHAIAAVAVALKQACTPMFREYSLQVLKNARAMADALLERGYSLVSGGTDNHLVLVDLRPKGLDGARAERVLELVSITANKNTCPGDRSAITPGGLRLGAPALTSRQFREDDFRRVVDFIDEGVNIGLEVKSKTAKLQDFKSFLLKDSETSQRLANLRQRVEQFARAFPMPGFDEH
UniProt Q96EB6: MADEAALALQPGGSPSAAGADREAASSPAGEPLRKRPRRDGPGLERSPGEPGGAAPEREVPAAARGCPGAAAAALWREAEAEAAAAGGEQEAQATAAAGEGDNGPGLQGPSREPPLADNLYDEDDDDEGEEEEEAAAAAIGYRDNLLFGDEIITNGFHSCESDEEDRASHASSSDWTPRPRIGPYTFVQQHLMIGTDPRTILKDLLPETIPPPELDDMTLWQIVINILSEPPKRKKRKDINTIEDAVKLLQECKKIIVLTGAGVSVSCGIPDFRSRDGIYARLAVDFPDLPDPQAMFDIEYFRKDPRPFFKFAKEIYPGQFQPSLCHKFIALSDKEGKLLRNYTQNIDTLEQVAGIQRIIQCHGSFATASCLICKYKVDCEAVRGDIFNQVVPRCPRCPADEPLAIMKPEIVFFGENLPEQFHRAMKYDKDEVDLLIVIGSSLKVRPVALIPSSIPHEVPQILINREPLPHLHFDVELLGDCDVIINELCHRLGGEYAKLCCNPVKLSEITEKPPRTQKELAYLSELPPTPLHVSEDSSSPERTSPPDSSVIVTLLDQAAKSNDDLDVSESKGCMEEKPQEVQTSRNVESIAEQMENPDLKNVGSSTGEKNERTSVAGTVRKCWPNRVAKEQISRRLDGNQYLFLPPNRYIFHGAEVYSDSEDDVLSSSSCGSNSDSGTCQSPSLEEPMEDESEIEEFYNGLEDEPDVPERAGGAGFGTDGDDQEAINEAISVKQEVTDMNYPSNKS
UniProt O75563, whole entry, looked up: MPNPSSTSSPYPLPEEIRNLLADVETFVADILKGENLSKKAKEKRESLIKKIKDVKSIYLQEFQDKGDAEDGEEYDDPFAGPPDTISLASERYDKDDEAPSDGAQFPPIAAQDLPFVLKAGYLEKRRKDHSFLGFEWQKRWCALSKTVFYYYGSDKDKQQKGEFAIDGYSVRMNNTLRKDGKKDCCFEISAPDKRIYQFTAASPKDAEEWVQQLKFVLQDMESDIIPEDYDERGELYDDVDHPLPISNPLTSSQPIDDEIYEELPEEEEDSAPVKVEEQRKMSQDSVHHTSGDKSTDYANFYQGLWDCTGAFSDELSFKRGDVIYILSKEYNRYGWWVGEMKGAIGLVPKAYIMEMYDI
UniProt P30740: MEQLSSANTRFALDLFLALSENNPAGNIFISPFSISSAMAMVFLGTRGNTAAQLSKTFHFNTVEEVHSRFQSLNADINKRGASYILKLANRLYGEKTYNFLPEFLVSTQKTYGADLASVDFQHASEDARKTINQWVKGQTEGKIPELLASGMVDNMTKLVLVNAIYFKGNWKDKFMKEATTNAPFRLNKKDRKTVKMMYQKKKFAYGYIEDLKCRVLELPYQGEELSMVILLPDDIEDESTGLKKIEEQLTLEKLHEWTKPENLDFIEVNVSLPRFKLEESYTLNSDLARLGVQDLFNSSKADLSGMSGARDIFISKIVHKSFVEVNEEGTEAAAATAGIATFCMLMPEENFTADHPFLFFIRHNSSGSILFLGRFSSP
UniProt P29353: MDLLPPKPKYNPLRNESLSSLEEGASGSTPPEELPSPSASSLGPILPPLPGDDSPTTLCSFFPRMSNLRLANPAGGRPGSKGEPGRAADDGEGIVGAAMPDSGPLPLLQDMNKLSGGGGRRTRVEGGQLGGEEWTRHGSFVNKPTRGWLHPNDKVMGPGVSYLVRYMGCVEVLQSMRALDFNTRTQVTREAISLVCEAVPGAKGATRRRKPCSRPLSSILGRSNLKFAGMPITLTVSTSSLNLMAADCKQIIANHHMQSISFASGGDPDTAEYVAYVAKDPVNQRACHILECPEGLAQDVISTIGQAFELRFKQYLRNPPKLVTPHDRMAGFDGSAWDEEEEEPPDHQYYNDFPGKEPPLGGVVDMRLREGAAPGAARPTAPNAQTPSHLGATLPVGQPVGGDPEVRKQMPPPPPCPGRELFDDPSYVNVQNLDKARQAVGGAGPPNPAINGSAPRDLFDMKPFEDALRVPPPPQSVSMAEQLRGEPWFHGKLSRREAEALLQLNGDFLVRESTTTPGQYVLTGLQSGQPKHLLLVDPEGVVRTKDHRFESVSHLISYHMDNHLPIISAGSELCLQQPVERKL
UniProt O95562: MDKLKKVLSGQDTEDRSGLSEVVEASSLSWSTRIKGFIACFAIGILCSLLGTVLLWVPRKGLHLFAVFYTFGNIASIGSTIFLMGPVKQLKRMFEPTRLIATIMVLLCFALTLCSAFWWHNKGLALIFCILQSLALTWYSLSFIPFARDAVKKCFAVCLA

Experiments:
Experiment in all cases: log2 fold change, soluble protein after heating vs DMSO (PISA); higher = thermal stabilisation; K562 lysate, 10 uM; active = over 0.2 and 3.5 SD of the protein, either way, in both replicates (recomputed)
vemurafenib = compound: CCCS(=O)(=O)Nc1ccc(F)c(C(=O)c2c[nH]c3ncc(-c4ccc(Cl)cc4)cc23)c1F [vemurafenib]
Method in brief: (§1)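 K562 pellets were dounce-homogenised in PBS pH 7.4 containing 1 mM MgCl2, and the crude extract, at 1 mg/mL protein, was exposed to 10 μM compound for 30 min. Aliquots were heated for 3 min across 48°C-58°C, pooled, brought to 0.5% NP-40 at 4°C and spun at 21,000xg for 90 min, with the supernatant taken as soluble protein. TMTpro 16plex LC-MS/MS with equalised channel sums quantified that protein. Values are log-two fold changes in thermal stability relative to solvent controls, taken from duplicates.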

[1] = compound: CCCS(=O)(=O)Nc1ccc(F)c(C(=O)c2c[nH]c3ncc(Cl)cc23)c1F
Method in brief: as §1

barasertib = compound: CCN(CCCOc1ccc2c(Nc3cc(CC(=O)Nc4cccc(F)c4)[nH]n3)ncnc2c1)CCOP(=O)(O)O [barasertib]
Method in brief: as §1

[2] = compound: CC[C@@H]1C(=O)N(C)c2cnc(Nc3ccc(C(=O)NC4CCN(C)CC4)cc3OC)nc2N1C1CCCC1
Method in brief: as §1

volasertib = compound: CC[C@@H]1C(=O)N(C)c2cnc(Nc3ccc(C(=O)N[C@H]4CC[C@H](N5CCN(CC6CC6)CC5)CC4)cc3OC)nc2N1C(C)C [volasertib]
Method in brief: as §1

[3] = compound: CCn1c(C(=O)N(C2CC2)C2CC2)cc2c3c(ncn3C)c(Nc3cc(C)n(C)n3)nc21
Method in brief: as §1

[4] = compound: CCn1cc(-c2ccnc3[nH]c(-c4cccc(CN(C)C)c4)cc23)c(-c2ccc(NC(=O)N(C)C)cc2)n1
Method in brief: as §1

[5] = compound: CN1CCC(CNc2ccc3ncc(-c4cccc(OC(F)(F)F)c4)n3n2)CC1
Method in brief: as §1

saracatinib = compound: CN1CCN(CCOc2cc(OC3CCOCC3)c3c(Nc4c(Cl)ccc5c4OCO5)ncnc3c2)CC1 [saracatinib]
Method in brief: as §1

sotrastaurin = compound: CN1CCN(c2nc(C3=C(c4c[nH]c5ccccc45)C(=O)NC3=O)c3ccccc3n2)CC1 [sotrastaurin]
Method in brief: as §1

alvocidib = compound: CN1CC[C@H](c2c(O)cc(O)c3c(=O)cc(-c4ccccc4Cl)oc23)[C@H](O)C1 [alvocidib]
Method in brief: as §1

Tubastatin A = compound: CN1CCc2c(c3ccccc3n2Cc2ccc(C(=O)NO)cc2)C1 [Tubastatin A]
Method in brief: as §1

[6] = compound: CNC(=O)C1=CC=CC=C1NC2=NC(=NC=C2Cl)NC3=C(C=C(C=C3)N4CCOCC4)OC
Method in brief: as §1

defactinib = compound: CNC(=O)c1ccc(Nc2ncc(C(F)(F)F)c(NCc3nccnc3N(C)S(C)(=O)=O)n2)cc1 [defactinib]
Method in brief: as §1

[7] = compound: CNc1nc(-c2ccc3c(N)n[nH]c3c2)cc(N2C[C@@H](C(=O)NC3CCCCC3)CC[C@H]2C)n1
Method in brief: as §1

encorafenib = compound: COC(=O)N[C@@H](C)CNc1nccc(-c2cn(C(C)C)nc2-c2cc(Cl)cc(NS(C)(=O)=O)c2F)n1 [encorafenib]
Method in brief: as §1

[8] = compound: COC(=O)[C@H](CCSC)NC(=O)C1=C(C=C(C=C1)NC[C@H](CS)N)C2=CC=CC=C2
Method in brief: as §1

alisertib = compound: COc1cc(Nc2ncc3c(n2)-c2ccc(Cl)cc2C(c2c(F)cccc2OC)=NC3)ccc1C(=O)O [alisertib]
Method in brief: as §1

[9] = compound: COc1cc2nc(-c3cc(F)ccc3O)nc(N[C@@H]3CNC[C@H]3C(C)(C)O)c2cc1OC
Method in brief: as §1

gefitinib = compound: COc1cc2ncnc(Nc3ccc(F)c(Cl)c3)c2cc1OCCCN1CCOCC1 [gefitinib]
Method in brief: as §1

Row | Target | log2 fold change (vemurafenib) | log2 fold change [1] | log2 fold change (barasertib) | log2 fold change [2] | log2 fold change (volasertib) | log2 fold change [3] | log2 fold change [4] | log2 fold change [5] | log2 fold change (saracatinib) | log2 fold change (sotrastaurin) | log2 fold change (alvocidib) | log2 fold change (Tubastatin A) | log2 fold change [6] | log2 fold change (defactinib) | log2 fold change [7] | log2 fold change (encorafenib) | log2 fold change [8] | log2 fold change (alisertib) | log2 fold change [9] | log2 fold change (gefitinib)
1 | SERINC1 (UniProt Q9NRX5) | inactive: -0.075 | inactive: 0.07 | inactive: -0.042 | inactive: 0.052 | inactive: 0.073 | inactive: -0.045 | inactive: -0.287 | inactive: 0.099 | inactive: 0.026 | inactive: -0.026 | inactive: -0.144 | inactive: -0.032 | inactive: 0.009 | inactive: 0.168 | inactive: -0.015 | inactive: 0.064 | inactive: -0.023 | inactive: 0.086 | inactive: 0.021 | inactive: 0.047
2 | SLC10A7 isoform 1 (UniProt Q0GE19) | inactive: -0.024 | inactive: 0.014 | inactive: -0.07 | inactive: 0.138 | inactive: -0.023 | inactive: -0.03 | inactive: -0.177 | inactive: 0.144 | inactive: 0.075 | inactive: 0.027 | inactive: -0.041 | inactive: 0.146 | inactive: 0.001 | inactive: 0.158 | inactive: 0.037 | inactive: 0.107 | inactive: 0.044 | inactive: 0.039 | inactive: -0.052 | inactive: 0.032
3 | SH3BP1 (UniProt Q9Y3L3) | inactive: 0.082 | inactive: 0.037 | inactive: 0.035 | inactive: -0.003 | inactive: -0.018 | inactive: -0.005 | inactive: -0.04 | inactive: 0.035 | inactive: -0.007 | inactive: -0.029 | inactive: -0.039 | inactive: 0.022 | inactive: -0.019 | inactive: 0.021 | inactive: -0.011 | inactive: 0.017 | inactive: -0.005 | inactive: -0.005 | inactive: 0.01 | inactive: -0.001
4 | SLAIN2 (UniProt Q9P270) | inactive: 0.01 | inactive: 0.002 | inactive: 0.006 | inactive: 0.095 | inactive: 0.01 | inactive: -0.026 | inactive: -0.006 | inactive: 0.03 | inactive: -0.01 | inactive: -0.012 | inactive: -0.051 | inactive: -0.013 | inactive: 0.06 | inactive: 0.003 | inactive: 0.025 | inactive: 0.041 | inactive: -0.128 | inactive: 0.043 | inactive: -0.001 | inactive: -0.008
5 | SIKE1 (UniProt Q9BRV8) | inactive: 0.073 | inactive: 0.028 | inactive: 0.182 | inactive: 0.031 | inactive: 0.019 | inactive: -0.001 | inactive: 0.045 | inactive: -0.021 | inactive: 0.043 | inactive: 0.061 | inactive: -0.006 | inactive: 0.011 | inactive: 0.062 | inactive: 0.017 | inactive: -0.018 | inactive: 0.005 | inactive: -0.126 | inactive: -0.044 | inactive: -0.037 | inactive: 0.012
6 | SH3BP5L (UniProt Q7L8J4) | inactive: 0.078 | inactive: 0.02 | inactive: -0.029 | inactive: 0.011 | inactive: 0.013 | inactive: -0.011 | inactive: -0.014 | inactive: 0.072 | inactive: 0.05 | inactive: 0 | inactive: -0.003 | inactive: -0.012 | inactive: 0.036 | inactive: -0.003 | inactive: -0.015 | inactive: 0.058 | inactive: -0.047 | inactive: 0.021 | inactive: 0.015 | inactive: 0.001
7 | SERF2 (UniProt P84101) | inactive: 0.071 | inactive: -0.071 | inactive: 0.063 | inactive: 0.072 | inactive: -0.128 | inactive: -0.037 | inactive: -0.003 | inactive: 0.063 | inactive: -0.013 | inactive: -0.003 | inactive: -0.017 | inactive: 0.043 | inactive: -0.034 | inactive: 0.002 | inactive: 0.068 | inactive: 0.042 | inactive: -0.124 | inactive: -0.086 | inactive: 0.128 | inactive: 0.038
8 | SLC12A2 (UniProt P55011) | inactive: 0.008 | inactive: -0.005 | inactive: 0.056 | inactive: 0.007 | inactive: -0.047 | inactive: -0.017 | inactive: 0.13 | inactive: -0.073 | inactive: 0.01 | inactive: 0.03 | inactive: 0.05 | inactive: 0.046 | inactive: -0.044 | inactive: 0.018 | inactive: -0.026 | inactive: 0.014 | inactive: 0.059 | inactive: -0.001 | inactive: 0.006 | inactive: 0.035
9 | SIGMAR1 (UniProt Q99720) | inactive: 0.033 | inactive: 0.032 | inactive: -0.034 | inactive: 0.019 | inactive: -0.038 | inactive: 0.018 | inactive: -0.203 | inactive: 0.066 | inactive: -0.001 | inactive: 0.027 | inactive: -0.123 | inactive: 0 | inactive: 0.022 | inactive: -0.028 | inactive: 0.107 | inactive: 0.066 | inactive: -0.015 | inactive: 0.01 | inactive: 0.044 | inactive: -0.033
10 | SHMT2 (UniProt P34897) | inactive: -0.003 | inactive: 0.024 | inactive: -0.034 | inactive: -0.045 | inactive: 0.003 | inactive: 0.012 | inactive: -0.032 | inactive: 0.037 | inactive: -0.006 | inactive: -0.038 | inactive: 0.024 | inactive: 0.026 | inactive: 0.002 | inactive: -0.008 | inactive: 0.021 | inactive: -0.025 | inactive: -0.02 | inactive: -0.002 | inactive: 0.002 | inactive: -0.011
11 | SIRT1 (UniProt Q96EB6) | inactive: -0.001 | inactive: 0.021 | inactive: 0.027 | inactive: -0.013 | inactive: 0.004 | inactive: 0.006 | inactive: 0.077 | inactive: -0.077 | inactive: 0.016 | inactive: 0.016 | inactive: 0.02 | inactive: 0.004 | inactive: 0.013 | inactive: 0.02 | inactive: 0.035 | inactive: -0.006 | inactive: 0.043 | inactive: 0.011 | inactive: 0.009 | inactive: 0.001
12 | SKAP2 (UniProt O75563) | inactive: 0.049 | inactive: 0.038 | inactive: 0.069 | inactive: 0.011 | inactive: -0.024 | inactive: -0.151 | inactive: -0.146 | inactive: -0.016 | inactive: 0.026 | inactive: 0.035 | inactive: 0.056 | inactive: 0.056 | inactive: 0 | inactive: 0.044 | inactive: -0.01 | inactive: 0.049 | inactive: 0.008 | inactive: -0.02 | inactive: 0.028 | inactive: 0.005
13 | SERPINB1 (UniProt P30740) | inactive: -0.004 | inactive: 0.004 | inactive: -0.02 | inactive: -0.013 | inactive: 0.005 | inactive: -0.004 | inactive: -0.053 | inactive: 0.027 | inactive: -0.02 | inactive: 0.003 | inactive: 0.003 | inactive: 0.016 | inactive: -0.014 | inactive: -0.015 | inactive: 0.014 | inactive: -0.027 | inactive: 0.016 | inactive: 0.006 | inactive: -0.01 | inactive: -0.026
14 | SHC1 isoform 6 (UniProt P29353) | inactive: 0.028 | inactive: 0.003 | inactive: 0.008 | inactive: -0.027 | inactive: 0.01 | inactive: -0.035 | active: 0.635 | inactive: -0.163 | inactive: -0.007 | inactive: 0.017 | inactive: 0.186 | inactive: 0.035 | inactive: 0.001 | inactive: -0.031 | inactive: 0.086 | inactive: 0.15 | inactive: -0.078 | inactive: -0.008 | inactive: -0.014 | inactive: -0.035
15 | SFT2D2 (UniProt O95562) | inactive: -0.117 | inactive: -0.035 | inactive: 0.008 | inactive: -0.158 | inactive: 0.071 | inactive: -0.027 | inactive: 0.067 | inactive: 0.143 | inactive: 0.257 | inactive: 0.059 | inactive: -0.03 | inactive: 0 | inactive: 0.039 | inactive: -0.025 | inactive: 0.045 | inactive: 0.018 | inactive: -0.15 | inactive: -0.003 | inactive: -0.021 | inactive: -0.017

As a short view, part of the list above:
Row | Target | log2 fold change (vemurafenib) | log2 fold change [1] | log2 fold change (barasertib) | log2 fold change [2] | log2 fold change (volasertib) | log2 fold change [3] | log2 fold change [4] | log2 fold change [5] | log2 fold change (saracatinib) | log2 fold change (sotrastaurin) | log2 fold change (alvocidib) | log2 fold change (Tubastatin A) | log2 fold change [6] | log2 fold change (defactinib) | log2 fold change [7] | log2 fold change (encorafenib) | log2 fold change [8] | log2 fold change (alisertib) | log2 fold change [9] | log2 fold change (gefitinib)
8 | SLC12A2 (UniProt P55011) | inactive: 0.008 | inactive: -0.005 | inactive: 0.056 | inactive: 0.007 | inactive: -0.047 | inactive: -0.017 | inactive: 0.13 | inactive: -0.073 | inactive: 0.01 | inactive: 0.03 | inactive: 0.05 | inactive: 0.046 | inactive: -0.044 | inactive: 0.018 | inactive: -0.026 | inactive: 0.014 | inactive: 0.059 | inactive: -0.001 | inactive: 0.006 | inactive: 0.035
9 | SIGMAR1 (UniProt Q99720) | inactive: 0.033 | inactive: 0.032 | inactive: -0.034 | inactive: 0.019 | inactive: -0.038 | inactive: 0.018 | inactive: -0.203 | inactive: 0.066 | inactive: -0.001 | inactive: 0.027 | inactive: -0.123 | inactive: 0 | inactive: 0.022 | inactive: -0.028 | inactive: 0.107 | inactive: 0.066 | inactive: -0.015 | inactive: 0.01 | inactive: 0.044 | inactive: -0.033
